{
  "sequences": {"note": "By UniProt entry, the sequences of proteins in these tests, tags left out. Where a name states a change or a piece, a line headed by the entry shows the natural chain unless it says otherwise. Chains listed by the source or under a name are the forms on record and can include a tag or linker. Residues count along the entry.", "UniProt P00175": "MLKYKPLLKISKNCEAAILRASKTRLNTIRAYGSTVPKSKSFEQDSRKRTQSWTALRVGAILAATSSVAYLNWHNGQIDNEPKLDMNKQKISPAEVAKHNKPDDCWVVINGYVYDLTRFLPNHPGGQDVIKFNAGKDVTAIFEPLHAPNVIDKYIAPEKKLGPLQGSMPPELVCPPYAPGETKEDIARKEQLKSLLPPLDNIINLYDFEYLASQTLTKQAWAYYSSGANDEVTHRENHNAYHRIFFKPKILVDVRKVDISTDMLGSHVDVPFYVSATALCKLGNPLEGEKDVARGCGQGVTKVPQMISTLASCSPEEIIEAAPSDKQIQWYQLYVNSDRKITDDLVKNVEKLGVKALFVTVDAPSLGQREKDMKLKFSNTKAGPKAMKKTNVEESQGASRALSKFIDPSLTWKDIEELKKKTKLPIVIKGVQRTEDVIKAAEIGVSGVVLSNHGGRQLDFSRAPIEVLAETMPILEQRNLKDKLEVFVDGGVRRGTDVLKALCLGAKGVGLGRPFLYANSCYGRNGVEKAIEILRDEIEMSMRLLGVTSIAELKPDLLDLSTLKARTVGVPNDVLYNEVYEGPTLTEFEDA", "UniProt Q9BXM7": "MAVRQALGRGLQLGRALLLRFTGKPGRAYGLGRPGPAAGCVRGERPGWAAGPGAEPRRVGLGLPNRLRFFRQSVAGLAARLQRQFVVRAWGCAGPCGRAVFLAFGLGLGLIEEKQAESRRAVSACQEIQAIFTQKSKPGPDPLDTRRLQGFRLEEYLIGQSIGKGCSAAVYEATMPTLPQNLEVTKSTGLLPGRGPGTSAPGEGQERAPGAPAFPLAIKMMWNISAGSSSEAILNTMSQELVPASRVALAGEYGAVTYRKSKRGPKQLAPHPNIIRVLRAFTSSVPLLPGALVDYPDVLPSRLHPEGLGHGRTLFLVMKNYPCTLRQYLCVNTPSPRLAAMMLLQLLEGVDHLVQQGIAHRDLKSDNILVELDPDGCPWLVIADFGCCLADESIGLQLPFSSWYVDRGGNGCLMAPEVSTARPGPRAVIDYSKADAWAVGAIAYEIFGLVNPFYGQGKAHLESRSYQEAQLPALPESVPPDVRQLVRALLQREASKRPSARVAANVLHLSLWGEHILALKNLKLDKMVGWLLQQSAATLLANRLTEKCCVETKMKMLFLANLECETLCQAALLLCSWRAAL", "wildtype PINK1-flag": "residues 78-581 of Q9BXM7", "Δ151 PINK1": "residues 152-581 of Q9BXM7", "L347P PINK1 (Q9BXM7, form named)": "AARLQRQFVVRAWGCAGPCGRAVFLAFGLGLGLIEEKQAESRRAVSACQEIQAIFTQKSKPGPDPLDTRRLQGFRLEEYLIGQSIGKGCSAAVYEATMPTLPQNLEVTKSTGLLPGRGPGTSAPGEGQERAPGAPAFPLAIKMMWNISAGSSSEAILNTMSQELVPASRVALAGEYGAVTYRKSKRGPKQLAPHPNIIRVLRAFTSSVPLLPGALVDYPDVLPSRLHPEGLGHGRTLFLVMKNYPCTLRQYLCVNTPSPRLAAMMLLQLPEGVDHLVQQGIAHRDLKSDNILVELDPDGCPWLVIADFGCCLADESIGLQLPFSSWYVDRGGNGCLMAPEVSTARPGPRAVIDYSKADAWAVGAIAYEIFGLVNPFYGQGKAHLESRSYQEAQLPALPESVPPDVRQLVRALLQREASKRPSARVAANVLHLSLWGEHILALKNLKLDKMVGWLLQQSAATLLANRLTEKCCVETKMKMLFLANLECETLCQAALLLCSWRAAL", "UniProt P08238": "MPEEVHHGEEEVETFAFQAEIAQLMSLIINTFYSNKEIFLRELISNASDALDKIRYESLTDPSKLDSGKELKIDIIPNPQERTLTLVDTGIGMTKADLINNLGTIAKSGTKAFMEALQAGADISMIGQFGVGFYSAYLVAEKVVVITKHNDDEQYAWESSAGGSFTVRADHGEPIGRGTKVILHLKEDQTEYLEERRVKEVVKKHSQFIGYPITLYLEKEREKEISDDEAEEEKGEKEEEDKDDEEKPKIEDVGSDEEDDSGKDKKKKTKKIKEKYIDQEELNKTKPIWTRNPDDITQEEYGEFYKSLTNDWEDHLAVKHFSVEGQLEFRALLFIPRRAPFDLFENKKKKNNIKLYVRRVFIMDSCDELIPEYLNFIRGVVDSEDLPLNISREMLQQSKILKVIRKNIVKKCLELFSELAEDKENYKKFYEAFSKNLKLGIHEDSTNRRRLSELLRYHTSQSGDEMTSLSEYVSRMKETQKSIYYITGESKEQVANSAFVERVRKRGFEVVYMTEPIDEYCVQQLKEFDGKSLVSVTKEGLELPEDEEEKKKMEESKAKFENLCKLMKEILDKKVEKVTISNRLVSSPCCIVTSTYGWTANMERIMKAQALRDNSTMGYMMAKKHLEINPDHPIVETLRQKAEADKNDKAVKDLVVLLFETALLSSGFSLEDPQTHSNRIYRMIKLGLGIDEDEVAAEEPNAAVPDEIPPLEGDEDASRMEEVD"},
  "source": "paper PMC2995477",
  "test_in_all_cases": "co-IP; transfected HeLa CCL-2 cells lysed in 1% Triton X-100 buffer (20 mM HEPES pH 7.5, 150 mM NaCl, 10% glycerol, 1 mM EDTA); rabbit anti-FLAG or anti-GFP immunoprecipitation at 4°C overnight, Protein A/G PLUS agarose, three washes; endogenous Hsp90 detected by blot",
  "key": {"[1]": {"biological_target": "mito-L347P PINK1 (yeast | human) (UniProt P00175+Q9BXM7)"}, "Δ151 PINK1 (human)": {"biological_target": "Δ151 PINK1 (human) (UniProt Q9BXM7)"}, "[2]": {"biological_target": "wildtype PINK1-flag (human) (UniProt Q9BXM7)"}, "[3]": {"biological_target": "mito-Δ151 PINK1 (yeast | human) (UniProt P00175+Q9BXM7)"}, "L347P PINK1 (human)": {"biological_target": "L347P PINK1 (human) (UniProt Q9BXM7)"}},
  "note": "Results are given in words; binding and its absence hold for the method and conditions named. Binding seen in cells or lysates may run through a third protein. Some entries that bind do so weakly or less than the wild type.",
  "data": [
    {"substance": "Hsp90 (from UniProt P08238 1-724)", "values": [
      {"measurement": "binding", "setting": "[1]", "value": "binds weakly"},
      {"measurement": "binding", "setting": "Δ151 PINK1 (human)", "value": "binds"},
      {"measurement": "binding", "setting": "[2]", "value": "binds"},
      {"measurement": "binding", "setting": "[3]", "value": "binds"},
      {"measurement": "binding", "setting": "L347P PINK1 (human)", "value": "binds weakly"}
    ]}
  ]
}
